Experimental data: the supplement of paper PMC10849652
Some of the results follow.

Amino acid sequences for entries named in this document (tags omitted). A change or cut given only in a name is not applied to a line headed by its entry.
UniProt Q8N4B1: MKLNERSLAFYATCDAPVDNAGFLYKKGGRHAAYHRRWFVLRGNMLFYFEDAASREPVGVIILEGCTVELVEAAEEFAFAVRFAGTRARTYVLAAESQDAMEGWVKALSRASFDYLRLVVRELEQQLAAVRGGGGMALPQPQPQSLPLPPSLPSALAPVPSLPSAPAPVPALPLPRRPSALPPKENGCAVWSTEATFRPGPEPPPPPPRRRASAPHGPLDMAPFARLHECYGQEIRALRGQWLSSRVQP
UniProt P16118: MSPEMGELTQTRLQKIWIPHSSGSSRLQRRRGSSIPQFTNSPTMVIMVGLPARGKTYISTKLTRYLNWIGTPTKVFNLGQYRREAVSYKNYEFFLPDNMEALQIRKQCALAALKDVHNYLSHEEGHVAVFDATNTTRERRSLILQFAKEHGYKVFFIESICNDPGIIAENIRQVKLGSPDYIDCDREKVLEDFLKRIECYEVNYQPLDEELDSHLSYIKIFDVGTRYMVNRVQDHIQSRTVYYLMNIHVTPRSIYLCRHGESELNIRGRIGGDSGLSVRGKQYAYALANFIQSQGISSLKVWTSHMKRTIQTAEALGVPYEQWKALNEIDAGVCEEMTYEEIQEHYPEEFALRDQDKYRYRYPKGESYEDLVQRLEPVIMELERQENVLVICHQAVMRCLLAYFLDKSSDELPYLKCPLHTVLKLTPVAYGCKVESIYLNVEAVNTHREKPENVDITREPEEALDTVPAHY
UniProt Q7Z7B1: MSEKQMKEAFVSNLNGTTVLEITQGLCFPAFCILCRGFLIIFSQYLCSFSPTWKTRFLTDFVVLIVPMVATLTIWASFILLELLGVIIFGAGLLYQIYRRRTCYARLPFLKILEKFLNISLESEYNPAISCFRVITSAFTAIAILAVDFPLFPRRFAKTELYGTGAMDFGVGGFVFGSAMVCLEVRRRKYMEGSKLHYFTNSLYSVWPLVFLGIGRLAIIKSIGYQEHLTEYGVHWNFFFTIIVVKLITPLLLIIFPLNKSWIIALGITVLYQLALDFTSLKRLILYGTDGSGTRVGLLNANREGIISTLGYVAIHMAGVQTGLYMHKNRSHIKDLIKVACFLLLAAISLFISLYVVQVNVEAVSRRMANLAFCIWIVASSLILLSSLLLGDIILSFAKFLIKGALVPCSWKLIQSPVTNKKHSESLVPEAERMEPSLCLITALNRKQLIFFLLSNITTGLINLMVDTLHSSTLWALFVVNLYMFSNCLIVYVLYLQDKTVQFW
UniProt Q9Y2B9: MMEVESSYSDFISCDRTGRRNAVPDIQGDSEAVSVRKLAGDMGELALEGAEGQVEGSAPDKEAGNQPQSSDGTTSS
UniProt Q9HAU0: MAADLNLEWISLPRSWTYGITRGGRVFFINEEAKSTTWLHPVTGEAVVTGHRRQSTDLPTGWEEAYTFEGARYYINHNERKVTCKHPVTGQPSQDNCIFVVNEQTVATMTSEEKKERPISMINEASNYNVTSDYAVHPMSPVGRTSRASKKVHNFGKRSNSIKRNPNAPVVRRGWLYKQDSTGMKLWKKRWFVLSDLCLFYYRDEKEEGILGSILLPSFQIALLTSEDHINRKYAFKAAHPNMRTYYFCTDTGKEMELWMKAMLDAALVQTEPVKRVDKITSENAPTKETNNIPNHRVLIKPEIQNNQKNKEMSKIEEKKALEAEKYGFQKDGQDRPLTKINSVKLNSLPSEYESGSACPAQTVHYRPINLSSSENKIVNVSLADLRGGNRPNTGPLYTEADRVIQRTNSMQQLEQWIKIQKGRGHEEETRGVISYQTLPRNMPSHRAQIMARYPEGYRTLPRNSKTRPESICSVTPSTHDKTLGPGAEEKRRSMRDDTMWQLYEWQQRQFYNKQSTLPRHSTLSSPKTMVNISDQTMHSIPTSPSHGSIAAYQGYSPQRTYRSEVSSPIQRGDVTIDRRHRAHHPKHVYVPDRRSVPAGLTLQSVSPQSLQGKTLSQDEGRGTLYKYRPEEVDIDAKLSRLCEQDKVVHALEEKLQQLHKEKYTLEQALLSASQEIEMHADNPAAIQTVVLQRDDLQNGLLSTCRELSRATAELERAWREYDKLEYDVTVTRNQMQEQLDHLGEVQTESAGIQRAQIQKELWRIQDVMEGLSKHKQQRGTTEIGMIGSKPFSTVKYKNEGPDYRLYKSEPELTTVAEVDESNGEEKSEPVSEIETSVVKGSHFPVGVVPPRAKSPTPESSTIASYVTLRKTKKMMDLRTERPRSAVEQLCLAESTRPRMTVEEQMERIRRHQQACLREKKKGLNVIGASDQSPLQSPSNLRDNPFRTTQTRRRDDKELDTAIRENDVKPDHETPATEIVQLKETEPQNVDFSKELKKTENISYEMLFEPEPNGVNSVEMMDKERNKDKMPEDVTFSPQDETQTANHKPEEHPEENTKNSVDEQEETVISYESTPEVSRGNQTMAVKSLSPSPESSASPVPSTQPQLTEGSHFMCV
UniProt Q8IUZ5: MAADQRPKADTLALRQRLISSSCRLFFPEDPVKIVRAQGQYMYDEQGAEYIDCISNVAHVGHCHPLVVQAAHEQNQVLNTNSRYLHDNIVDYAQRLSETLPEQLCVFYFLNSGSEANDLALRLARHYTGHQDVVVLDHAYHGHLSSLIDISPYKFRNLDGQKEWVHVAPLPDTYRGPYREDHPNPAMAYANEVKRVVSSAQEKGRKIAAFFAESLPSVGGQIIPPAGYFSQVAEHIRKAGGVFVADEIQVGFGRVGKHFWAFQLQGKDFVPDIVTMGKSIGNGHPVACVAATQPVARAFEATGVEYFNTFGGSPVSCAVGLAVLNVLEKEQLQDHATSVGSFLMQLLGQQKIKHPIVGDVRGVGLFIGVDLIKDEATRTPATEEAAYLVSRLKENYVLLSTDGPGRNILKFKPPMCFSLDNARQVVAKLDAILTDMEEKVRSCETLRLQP
UniProt Q9BZM1: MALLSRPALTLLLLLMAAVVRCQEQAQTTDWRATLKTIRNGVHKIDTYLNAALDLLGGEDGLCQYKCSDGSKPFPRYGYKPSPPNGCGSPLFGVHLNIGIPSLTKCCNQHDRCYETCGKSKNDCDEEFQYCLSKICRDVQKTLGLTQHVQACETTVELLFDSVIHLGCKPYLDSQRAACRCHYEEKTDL
UniProt O60331: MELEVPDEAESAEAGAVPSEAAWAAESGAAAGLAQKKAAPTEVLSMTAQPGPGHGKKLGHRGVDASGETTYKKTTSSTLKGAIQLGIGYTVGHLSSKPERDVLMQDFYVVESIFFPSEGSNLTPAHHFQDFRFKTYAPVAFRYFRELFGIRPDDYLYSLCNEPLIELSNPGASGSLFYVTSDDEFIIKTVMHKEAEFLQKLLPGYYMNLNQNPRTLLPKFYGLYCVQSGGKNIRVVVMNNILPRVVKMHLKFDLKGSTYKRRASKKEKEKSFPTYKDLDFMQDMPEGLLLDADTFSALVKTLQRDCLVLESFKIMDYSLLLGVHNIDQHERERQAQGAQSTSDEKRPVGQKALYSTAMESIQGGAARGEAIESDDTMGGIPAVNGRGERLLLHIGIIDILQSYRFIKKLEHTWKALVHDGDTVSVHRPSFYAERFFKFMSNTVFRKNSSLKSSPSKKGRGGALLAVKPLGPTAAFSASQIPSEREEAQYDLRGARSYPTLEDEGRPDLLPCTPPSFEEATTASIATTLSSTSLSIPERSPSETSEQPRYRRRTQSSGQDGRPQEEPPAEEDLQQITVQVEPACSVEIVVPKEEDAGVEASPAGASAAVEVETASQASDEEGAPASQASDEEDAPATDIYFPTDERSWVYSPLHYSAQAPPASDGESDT
UniProt Q03405, whole entry, looked up: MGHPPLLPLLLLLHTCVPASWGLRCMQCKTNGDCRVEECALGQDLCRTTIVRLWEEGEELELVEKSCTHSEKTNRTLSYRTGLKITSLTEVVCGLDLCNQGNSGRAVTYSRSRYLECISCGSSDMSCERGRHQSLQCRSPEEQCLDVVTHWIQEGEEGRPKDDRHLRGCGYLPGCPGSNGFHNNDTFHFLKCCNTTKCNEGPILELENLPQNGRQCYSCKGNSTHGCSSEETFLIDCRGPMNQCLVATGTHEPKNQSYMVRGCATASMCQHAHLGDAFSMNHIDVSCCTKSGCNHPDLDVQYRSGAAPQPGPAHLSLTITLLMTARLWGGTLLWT
UniProt Q96CS7: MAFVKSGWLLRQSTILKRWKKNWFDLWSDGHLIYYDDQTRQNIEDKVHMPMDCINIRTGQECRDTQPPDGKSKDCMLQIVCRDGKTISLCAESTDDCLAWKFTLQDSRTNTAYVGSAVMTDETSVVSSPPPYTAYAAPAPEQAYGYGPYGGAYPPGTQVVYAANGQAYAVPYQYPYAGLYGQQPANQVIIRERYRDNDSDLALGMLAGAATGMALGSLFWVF
PIGBOS1, A0A0B4J2F0, UniProt A0A0B4J2F0, whole entry, looked up: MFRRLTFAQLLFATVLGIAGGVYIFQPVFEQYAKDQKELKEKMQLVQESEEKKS
UniProt P55347: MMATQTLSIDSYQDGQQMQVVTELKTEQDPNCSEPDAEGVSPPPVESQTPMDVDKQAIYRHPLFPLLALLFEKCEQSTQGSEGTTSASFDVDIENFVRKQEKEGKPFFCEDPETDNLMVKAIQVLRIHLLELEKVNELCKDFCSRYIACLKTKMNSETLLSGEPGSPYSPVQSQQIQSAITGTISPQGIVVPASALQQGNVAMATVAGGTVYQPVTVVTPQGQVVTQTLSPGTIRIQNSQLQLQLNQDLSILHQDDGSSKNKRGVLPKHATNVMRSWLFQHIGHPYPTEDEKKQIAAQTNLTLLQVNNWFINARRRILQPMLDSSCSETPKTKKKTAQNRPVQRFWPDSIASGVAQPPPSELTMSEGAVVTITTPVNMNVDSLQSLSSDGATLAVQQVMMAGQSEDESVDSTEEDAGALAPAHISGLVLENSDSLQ
UniProt Q9BSJ6: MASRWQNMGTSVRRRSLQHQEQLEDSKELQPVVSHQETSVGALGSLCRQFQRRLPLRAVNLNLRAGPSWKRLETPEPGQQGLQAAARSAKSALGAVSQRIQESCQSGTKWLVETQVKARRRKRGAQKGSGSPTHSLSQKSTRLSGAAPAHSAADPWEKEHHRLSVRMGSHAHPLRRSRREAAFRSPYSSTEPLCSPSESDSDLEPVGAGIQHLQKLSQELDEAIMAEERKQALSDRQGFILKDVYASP
UniProt Q9C010: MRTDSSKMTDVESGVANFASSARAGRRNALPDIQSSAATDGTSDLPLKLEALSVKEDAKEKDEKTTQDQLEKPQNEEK
UniProt Q9UBF8: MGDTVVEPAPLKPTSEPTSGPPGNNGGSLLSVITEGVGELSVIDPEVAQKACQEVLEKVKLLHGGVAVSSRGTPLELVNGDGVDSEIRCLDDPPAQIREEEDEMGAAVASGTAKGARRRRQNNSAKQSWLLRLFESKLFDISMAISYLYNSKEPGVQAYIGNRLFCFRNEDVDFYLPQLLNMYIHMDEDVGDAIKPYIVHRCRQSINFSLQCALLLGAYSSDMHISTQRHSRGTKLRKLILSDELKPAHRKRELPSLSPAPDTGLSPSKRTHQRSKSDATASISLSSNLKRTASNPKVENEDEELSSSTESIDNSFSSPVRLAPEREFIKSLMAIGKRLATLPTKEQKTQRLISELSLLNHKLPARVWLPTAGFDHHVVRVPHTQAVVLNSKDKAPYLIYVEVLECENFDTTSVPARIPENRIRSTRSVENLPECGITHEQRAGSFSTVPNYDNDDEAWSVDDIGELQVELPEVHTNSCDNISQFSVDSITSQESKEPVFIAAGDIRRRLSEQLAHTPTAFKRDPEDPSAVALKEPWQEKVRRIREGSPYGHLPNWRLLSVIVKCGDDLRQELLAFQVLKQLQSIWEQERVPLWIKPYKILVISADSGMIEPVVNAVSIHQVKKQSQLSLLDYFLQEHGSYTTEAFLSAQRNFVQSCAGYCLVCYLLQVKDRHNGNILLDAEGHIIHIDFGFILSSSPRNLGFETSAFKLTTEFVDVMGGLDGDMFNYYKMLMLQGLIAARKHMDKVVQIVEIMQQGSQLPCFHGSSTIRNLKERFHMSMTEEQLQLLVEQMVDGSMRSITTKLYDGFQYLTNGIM
UniProt P36871: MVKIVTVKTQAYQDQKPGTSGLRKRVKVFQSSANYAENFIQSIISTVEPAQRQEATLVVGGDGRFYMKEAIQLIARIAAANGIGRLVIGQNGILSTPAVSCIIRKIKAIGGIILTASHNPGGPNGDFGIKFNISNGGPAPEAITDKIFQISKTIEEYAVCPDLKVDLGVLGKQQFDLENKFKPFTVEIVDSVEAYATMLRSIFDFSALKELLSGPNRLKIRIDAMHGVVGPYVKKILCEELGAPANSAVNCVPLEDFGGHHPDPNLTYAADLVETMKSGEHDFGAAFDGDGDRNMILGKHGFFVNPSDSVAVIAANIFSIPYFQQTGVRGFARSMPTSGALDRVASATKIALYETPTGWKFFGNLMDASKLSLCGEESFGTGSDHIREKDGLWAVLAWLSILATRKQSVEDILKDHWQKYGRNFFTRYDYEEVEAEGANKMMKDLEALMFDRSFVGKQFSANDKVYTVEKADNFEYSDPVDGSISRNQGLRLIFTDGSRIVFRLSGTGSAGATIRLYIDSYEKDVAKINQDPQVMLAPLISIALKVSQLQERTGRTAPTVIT

Columns and labels:
Assay in all cases: log2 fold change, soluble protein after heating vs DMSO (PISA); higher = thermal stabilisation; K562 cells, 10 uM, 30 min; active = over 0.2 and 3.5 SD of the protein, either way, in both replicates (recomputed)
[1] = compound: CON(C)C(=O)N1N=C(c2cc(F)ccc2F)S[C@@]1(CCCN)c1ccccc1 [filanesib]
How it was run: (§1)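 Quantification of soluble protein used TMTpro 16plex LC-MS/MS, with channel sums equalised. Samples were the supernatant after 21,000xg for 90 min of pooled aliquots from K562 cells (2×10^6 cells/mL) treated with 10 μM compound for 30 min, heated for 3 min over 48°C-58°C, and extracted in PBS with 0.5% NP-40 at 4°C. Values, from duplicates, describe thermal stability against control samples on a log2 fold-change scale.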

[2] = compound: CO[C@H]1C[C@@H]2CC[C@@H](C)[C@@](O)(O2)C(=O)C(=O)N2CCCC[C@H]2C(=O)O[C@H]([C@H](C)C[C@@H]2CC[C@H](n3cnnn3)[C@H](OC)C2)CC(=O)[C@H](C)/C=C(\C)[C@@H](O)[C@@H](OC)C(=O)[C@H](C)C[C@H](C)/C=C/C=C/C=C/1C [zotarolimus]
How it was run: as §1

[3] = compound: COc1cc(C(=O)O)ccc1NC(=O)[C@@H]1N[C@@H](CC(C)(C)C)[C@](C#N)(c2ccc(Cl)cc2F)[C@H]1c1cccc(Cl)c1F [idasanutlin]
How it was run: as §1

[4] = compound: COc1cc(Nc2ncc3c(n2)-c2ccc(Cl)cc2C(c2c(F)cccc2OC)=NC3)ccc1C(=O)O [alisertib]
How it was run: as §1

[5] = compound: COc1cccc2cc(-c3nc([C@H]4CC[C@H](C(=O)O)CC4)n4ncnc(N)c34)[nH]c12
How it was run: as §1

[6] = compound: CS(=O)(=O)c1ccc(-c2cnc(N)c(C(=O)Nc3ccccc3)n2)cc1
How it was run: as §1

[7] = compound: C[C@@H]1COCCN1C2=NC(=NC(=C2)C3(CC3)S(=O)(=O)C)C4=C5C=CNC5=CC=C4
How it was run: as §1

[8] = compound: C[C@H](C1=CC=C(C=C1)C(=O)NC2=C3C=CNC3=NC=C2)N
How it was run: as §1

[9] = compound: Cc1ccc(C(=O)N(CCCN)[C@@H](c2nc3cc(Cl)ccc3c(=O)n2Cc2ccccc2)C(C)C)cc1 [ispinesib]
How it was run: as §1

[10] = compound: COc1cc2nc(-c3cc(F)ccc3O)nc(N[C@@H]3CNC[C@H]3C(C)(C)O)c2cc1OC
How it was run: as §1

[11] = compound: CS(=O)(=O)CCNCc1ccc(-c2ccc3ncnc(Nc4ccc(OCc5cccc(F)c5)c(Cl)c4)c3c2)o1 [lapatinib]
How it was run: as §1

[12] = compound: CS(=O)(=O)N1CCN(Cc2cc3nc(-c4cccc5[nH]ncc45)nc(N4CCOCC4)c3s2)CC1 [pictilisib]
How it was run: as §1

[13] = compound: C[C@H](Nc1ncnc2nc[nH]c12)c1cc2cccc(Cl)c2c(=O)n1-c1ccccc1 [duvelisib]
How it was run: as §1

[14] = compound: Cc1cc(Nc2cc(CN3CCOCC3)c3nc(C)c(Cc4ccc(Cl)cc4F)n3n2)n[nH]1 [gandotinib]
How it was run: as §1

[15] = compound: Cc1cc(SCc2sc(-c3ccc(C(F)(F)F)cc3)nc2C)ccc1OCC(=O)O
How it was run: as §1

[16] = compound: COc1cc2ncnc(Nc3ccc(F)c(Cl)c3)c2cc1OCCCN1CCOCC1 [gefitinib]
How it was run: as §1

[17] = compound: Cc1cc(Nc2cc(N3CCN(C)CC3)nc(Sc3ccc(NC(=O)C4CC4)cc3)n2)n[nH]1 [tozasertib]
How it was run: as §1

Measured: log2 fold change

PIK3CA (UniProt P42336)
inactive: [1] -0.016 | [2] 0.167 | [3] 0.014 | [4] 0.103 | [5] -0.228 | [6] -0.089 | [7] 0.035 | [8] 0.134 | [9] -0.085

PKP4 (UniProt Q99569)
inactive: [7] -0.134 | [9] -0.044

PKLR (UniProt F8W6W2)
inactive: [3] -0.025 | [10] 0.286 | [11] -0.883

PHETA1 isoform 4 (UniProt Q8N4B1)
inactive: [3] 0.187 | [10] -0.099 | [11] 0.015 | [12] -0.005 | [13] -0.023 | [14] 0.021 | [15] 0.019

PFKFB1 (UniProt P16118)
inactive: [1] -0.031 | [4] -0.076 | [10] -0.11 | [16] -0.055 | [5] 0.039 | [11] 0.055 | [12] -0.235 | [6] -0.116 | [7] 0.047 | [14] -0.304

PIGW (UniProt Q7Z7B1)
inactive: [1] -0.048 | [3] -0.146 | [4] -0.086 | [10] 0.032 | [16] 0.067 | [5] 0.072 | [11] -0.054 | [12] 0.063 | [6] 0.047 | [7] -0.001 | [13] 0.122 | [14] -0.014 | [17] -0.112 | [15] 0.062

PFN3 (UniProt P60673)
inactive: [1] -0.014 | [2] -0.213 | [3] -0.329 | [4] -0.224 | [10] -0.129 | [5] 0.082 | [11] -0.047 | [12] -0.145 | [6] 0.22 | [7] -0.18 | [8] 0.118 | [13] 0.247 | [14] -0.363 | [17] -0.495 | [15] -0.086

PKIG (UniProt Q9Y2B9)
inactive: [4] 0.251 | [5] 0.057

PLEKHA5 isoform 6 (UniProt Q9HAU0)
inactive: [2] 0.059 | [3] 0.031 | [4] -0.318 | [5] -0.29 | [12] 0.172 | [7] -0.051 | [8] 0.303 | [14] 0.05 | [17] 0.154

PHYKPL (UniProt Q8IUZ5)
inactive: [1] 0.091 | [4] 0.035 | [10] 0.11 | [16] -0.132 | [5] -0.234 | [11] -0.038 | [12] -0.024 | [6] 0.007 | [7] 0.05 | [13] 0.274 | [14] -0.096 | [17] 0.008 | [15] 0.419

PHRF1 (UniProt Q9P1Y6)
inactive: [4] -0.001 | [10] 0.049 | [5] -0.121 | [11] 0.194 | [9] -0.296

PLA2G12A (UniProt Q9BZM1)
inactive: [1] -0.001 | [2] 0 | [3] -0.088 | [4] -0.046 | [10] -0.132 | [16] 0.019 | [5] 0.261 | [11] -0.122 | [12] -0.112 | [6] -0.017 | [7] -0.43 | [8] -0.199 | [13] -0.136 | [14] -0.103 | [17] 0.024 | [15] -0.002 | [9] -0.038

PKHD1 (UniProt P08F94)
inactive: [3] -0.04

PIP5K1C isoform 3 (UniProt O60331)
inactive: [1] 0.027 | [12] 0.015 | [6] 0.112 | [7] -0.082 | [13] 0.065 | [14] 0.056 | [17] 0.068 | [15] 0.11

PLAUR (UniProt Q03405)
inactive: [2] -0.047 | [3] 0.041 | [8] 0.029

PIM1 isoform 2 (UniProt P11309)
inactive: [4] 0.267 | [5] -0.327 | [12] -0.126 | [14] -0.084

PLEKHB2 isoform 2 (UniProt Q96CS7)
inactive: [10] 0.087 | [11] 0.104 | [13] 0.207 | [15] -0.05

PIGX isoform 2 (UniProt Q8TBF5)
inactive: [1] -0.152 | [2] 0.115 | [4] -0.181 | [5] 0.074 | [12] -0.036 | [6] 0.124 | [7] 0.053 | [8] -0.128 | [13] 0.039 | [14] 0.014 | [17] -0.019 | [15] -0.101

PIGBOS1, A0A0B4J2F0
inactive: [1] 0.056 | [2] 0.096 | [3] 0.158 | [4] -0.028 | [10] -0.021 | [16] 0.051 | [5] 0.066 | [11] -0.009 | [12] -0.083 | [6] 0.115 | [7] 0.099 | [8] -0.029 | [13] 0.051 | [14] 0.02 | [17] -0.077 | [15] -0.298 | [9] 0.014

PKNOX1 (UniProt P55347)
inactive: [3] 0.104 | [13] -0.037 | [15] 0.036

PIMREG (UniProt Q9BSJ6)
inactive: [12] 0.029 | [14] -0.11

PKIB isoform 2 (UniProt Q9C010)
inactive: [4] -0.172 | [10] -0.133 | [5] -0.089 | [11] 0 | [12] 0.083 | [14] 0.164

PHF14 (UniProt O94880)
inactive: [1] -0.016 | [4] -0.094 | [5] -0.1 | [12] -0.231 | [6] -0.283 | [13] -0.081 | [14] -0.027 | [17] 0.123 | [15] -0.116 | [9] -0.01

PI4KB isoform 2 (UniProt Q9UBF8)
inactive: [12] 0.007 | [14] -0.101

PGM1 isoform 2 (UniProt P36871)
inactive: [13] 0.045 | [15] -0.142

PEX5 isoform 4 (UniProt P50542)
inactive: [1] 0.064 | [2] -0.048 | [3] -0.15 | [6] -0.091 | [7] -0.016 | [8] 0.15 | [15] -0.047 | [9] -0.078

Copied from above (7 entries):
PKNOX1 (UniProt P55347)
inactive: [3] 0.104 | [13] -0.037 | [15] 0.036

PIMREG (UniProt Q9BSJ6)
inactive: [12] 0.029 | [14] -0.11

PKIB isoform 2 (UniProt Q9C010)
inactive: [4] -0.172 | [10] -0.133 | [5] -0.089 | [11] 0 | [12] 0.083 | [14] 0.164

PHF14 (UniProt O94880)
inactive: [1] -0.016 | [4] -0.094 | [5] -0.1 | [12] -0.231 | [6] -0.283 | [13] -0.081 | [14] -0.027 | [17] 0.123 | [15] -0.116 | [9] -0.01

PI4KB isoform 2 (UniProt Q9UBF8)
inactive: [12] 0.007 | [14] -0.101

PGM1 isoform 2 (UniProt P36871)
inactive: [13] 0.045 | [15] -0.142

PEX5 isoform 4 (UniProt P50542)
inactive: [1] 0.064 | [2] -0.048 | [3] -0.15 | [6] -0.091 | [7] -0.016 | [8] 0.15 | [15] -0.047 | [9] -0.078
